Data published in the supplement of paper PMC12889115.
This is one part of the list. These are raw signals, not scaled to a control.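 In the initial screen, polymyxin B was used at a concentration that permeabilizes Salmonella's outer membrane but not its inner membrane. Maximum growth was set by DMSO wells with or without polymyxin B. Since plates varied, data were ranked per plate, and compounds giving the lowest OD600 advanced as hits.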

Tested on: Salmonella enterica serovar Typhimurium SL1344
Experiment: bacterial growth OD600 after 18 h with compound and polymyxin B; higher = more bacterial growth (less inhibition)
Settings: 50 µM, Mueller-Hinton broth

SMILES	bacterial growth OD600 (polymyxin B 0.75 µg/mL)	bacterial growth OD600 (polymyxin B 1 µg/mL)
CCN1CCCC1CNC(=O)c1cnn(-c2ncc3c(n2)-c2ccccc2CCC3)c1C1CC1 (stereo unspecified)	0.825	–
Cc1cnc(SCCN2CCOCC2)nc1C1CCCN(C(=O)Cc2c[nH]c3ccccc23)C1 (stereo unspecified)	0.756	–
CCOC(=O)N1CCN(c2nc3cc(OC)c(OC)cc3cc2CNCc2ccccc2C(F)(F)F)CC1	0.879	–
Cc1c(C(C)NC(=O)CN2CCC(c3ccccc3)CC2)cnn1-c1ccccn1 (stereo unspecified)	–	0.842
O=C(c1coc(COc2cccc(F)c2)n1)N1CCN(c2ccccn2)CC1	–	0.931
O=C(NC(CCn1cncn1)c1ccccc1)c1ccc2nc(C3CC3)oc2c1 (stereo unspecified)	–	0.957
O=C(C1CCCC1)N1CCCC(N2CCN(c3cccc(C(F)(F)F)c3)CC2)C1 (stereo unspecified)	–	0.719
Cc1oc(-c2ccccc2NC(=O)c2ccccc2)nc1CNC(=O)c1cnn(Cc2ccccc2)c1	0.785	–
Cc1cccc(C(=O)N2CCCC(Nc3ccc(F)cc3)C2)c1 (stereo unspecified)	–	1.03
COc1cc(CN2CCOc3ccc(C(C)(O)COc4ccccc4)cc3C2)cc(OC)c1OC (stereo unspecified)	0.002	–
COCCCn1c(CN2C[C@@H](C)O[C@@H](C)C2)cnc1S(=O)(=O)C1CCCC1	0.773	–
Cc1cccc2nc(CN(C)c3nncc(-c4ccc(Cl)cc4)n3)[nH]c12	-0.003	–
CCN(Cc1nccn1C)C(=O)c1ccc(N2CCC(N(C)C)C2)nc1 (stereo unspecified)	0.81	–
COc1ccc(F)c(CNC2CCCN(c3ncccn3)C2)c1 (stereo unspecified)	–	0.848
CCn1c(-c2ccccc2F)nc2cc(C(=O)N(C)Cc3cccc(OC)c3)cc(NC(C)=O)c21	0.909	–
COCC1CCCCN1Cc1cn(-c2ccccc2)nc1-c1ccc2c(c1)OCO2 (stereo unspecified)	–	0.813

SMILES	bacterial growth OD600 (polymyxin B 0.75 µg/mL)	bacterial growth OD600 (polymyxin B 1 µg/mL)
COc1ccc(CCCNC(=O)c2ccc(N3CCN(C)C(C)C3)nc2)cc1 (stereo unspecified)	–	1.14
COc1ccc(OC)c(CNC(=O)CCC2(Cc3ccc(OC)c4ccccc34)CCC(=O)N2)c1 (stereo unspecified)	0.885	–
COc1ccc(-c2nn(-c3ccccc3C)cc2CN2CCCC(O)C2)cc1F (stereo unspecified)	–	0.851
COC(=O)C1CCCCN1Cc1nc(-c2cccc(C(F)(F)F)c2)oc1C (stereo unspecified)	–	0.967
Cc1cccc(-n2ncc3c2CCCC3NCc2cn(CC(N)=O)c3ccccc23)c1C (stereo unspecified)	0.659	–
CCOC(=O)C1(C/C=C/c2ccccc2)CCCN(Cc2cnc(SC)nc2)C1 (stereo unspecified)	–	0.615
OC1CCCN(CCCNc2nc3nonc3nc2N2CCCCCC2)C1 (stereo unspecified)	–	0.983
OC1CCCN(CCNc2nc3nonc3nc2N2CCSCC2)C1 (stereo unspecified)	0.737	–
CCN(Cc1ccncc1)C(=O)c1cc(COc2ccc(F)cc2F)on1	0.753	–
CC[C@H](C)[C@H](NC(=O)c1cc(COc2ccc(F)c(F)c2)on1)C(=O)OC	0.556	–
COc1ccc(NC(=O)CCC2CCN(C(=O)C3CC34CCCC4)CC2)c(OC)c1 (stereo unspecified)	–	0.941
Cc1ccc(Oc2ncccc2CNC(=O)c2cccc(F)c2)cn1	–	0.785
CCN(Cc1ccncc1)C(=O)CCc1nnc(CCc2ccc(OC)cc2)o1	–	0.95
COCC1CCN(C(=O)c2cc(COc3ccc(Cl)cc3OC)on2)C1 (stereo unspecified)	–	0.954
CO[C@H]1[C@H](NC(=O)Cc2cccs2)c2ccccc2C12CCN(Cc1cccc(C(C)=O)c1)CC2	0.829	–

Quoted at random: two compounds from above.
SMILES	bacterial growth OD600 (polymyxin B 0.75 µg/mL)	bacterial growth OD600 (polymyxin B 1 µg/mL)
CCOC(=O)C1(C/C=C/c2ccccc2)CCCN(Cc2cnc(SC)nc2)C1 (stereo unspecified)	–	0.615
COC(=O)C1CCCCN1Cc1nc(-c2cccc(C(F)(F)F)c2)oc1C (stereo unspecified)	–	0.967
